# Assay results from patent US12577259B2 (MERCK SHARP & DOHME LLC, priority 2019, dated 2026).
# Assay: general procedure: Fmoc solid-phase peptide synthesis; PS Rink-Amide MBHA resin; HATU/DIPEA; DIC/Oxyma
# Conditions: whole synthesis, scale 0.250 mmol, chloride after AG MP-1 resin exchange
substance,measurement,value
Int-A (Reagent A),crude mass,399 mg
Int-A (Reagent B),crude mass,300 mg
